This is one part of the list. Shown are side measurements of this screen, not its main read-out; they come without a call. Compounds called inactive in the main read-out are mostly missing here. Potencies come from curve fits of mixed quality, noted in brackets.
Experiment: qHTS Assay for Lipid Storage Modulators in Drosophila S3 Cells;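 on cell number change: cells counted by Cell Tracker Red CMTPX staining in the red channel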
Conditions: BODIPY lipid droplet fluorescence, 18-24 h; for cell number change: measured here: cell count max response, cells fed with added oleic acid
Method in brief: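 Laser-scanning cytometry quantifies lipid droplet accumulation (500–530 nm total intensity; droplet/cell object ratio) in oleic acid-fed (400 uM added) Drosophila S3 cells treated with a concentration series. 20 uM Triacsin C defined 100% inhibition.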

[1] = measured here: cell number channel AC50, cells fed with added oleic acid
[2] = measured here: lipid fluorescence (Fed channel) AC50, cells fed with added oleic acid

Structure (SMILES)	cell number change [%]	AC50 [1]	AC50 [2]
O=C(NC1CCCC1)C(c1cccnc1)N(C(=O)c1ccco1)c1ccc(F)cc1 (stereo not given)	6.94	–	–
C/C(=N\NC(=O)C1CC1c1ccccc1)c1cccc([N+](=O)[O-])c1 (stereo not given)	-95.7	32.6 µM [falling, partial curve, poor fit]	–
Cc1ccc(-c2nnc(N(C)C(=O)c3cccnc3)s2)cn1	105	6.51 µM [rising, partial curve]	1.84 µM [rising, partial curve]
Cc1cc(=O)oc2cc(OCC(=O)Nc3ccccc3C(N)=O)c(Cl)cc12	-0.382	3.26 µM [falling, partial curve, poor fit]	10.3 µM [falling, partial curve]
CCc1cccc2c(=O)c(C(=O)N3CCOCC3)c[nH]c12	-31.2	0.461 µM [falling, full curve]	0.231 µM [falling, partial curve]
O=C(CSc1n[nH]c(-c2ccc(S(=O)(=O)N3CCCCC3)cc2)n1)Nc1nccs1	-26.9	–	23.1 µM [falling, single point]
COc1ccc(-c2nc(N)ncc2-c2ccc(Cl)cc2)c(O)c1	12.8	–	16.4 µM [rising, single point]
Cc1ccsc1-c1cc(C(=O)O)c2c(ccc3ccccc32)n1	12.6	–	29.1 µM [rising, single point]
COc1ccc2c(c1)-c1nc(NC(=O)c3cccs3)sc1CC2	6.98	–	18.4 µM [falling, partial curve]
COCC(=O)Nc1c(C(=O)Nc2cccc(OC)c2)oc2ccccc12	–	–	1.3 µM [rising, full curve]
CC1CCCCN1C(=O)c1ccc(CS(=O)(=O)Cc2ccccc2)cc1 (stereo not given)	–	–	1 µM [rising, partial curve]
c1ccc(-c2nc(Sc3ncnc4c3cnn4-c3ccccc3)n[nH]2)cc1	-1.36	–	–
Cc1ccc2c(c1)CCCN2C(=O)c1c(C)noc1C	-37.9	14.6 µM [falling, single point]	–
CN1CCN(C(=S)c2cn(Cc3cccc(F)c3)c3ccccc23)CC1	–	6.51 µM [rising, single point]	–
Cc1ccc(-c2noc(CCC(=O)NCC3CCCO3)n2)cc1 (stereo not given)	–	–	3.66 µM [falling, partial curve]
CCCn1c(C(C)Nc2nc(-c3ccc(C)cc3)cs2)nc2ccccc21 (stereo not given)	7.44	–	–
CC(C)(C)c1ccc(C(=O)N2CCC(NC(=O)c3ccccc3)CC2)cc1	-14.8	–	11.6 µM [falling, partial curve, poor fit]

Complete entries, looked up by structure. Values in the order: cell number change [%] | AC50 [1] | AC50 [2]
`Cc1ccc2c(c1)CCCN2C(=O)c1c(C)noc1C` reads -37.9 | 14.6 µM [falling, single point] | –
`Cc1ccc(-c2nnc(N(C)C(=O)c3cccnc3)s2)cn1` reads 105 | 6.51 µM [rising, partial curve] | 1.84 µM [rising, partial curve]

— PubChem BioAssay AID2685 (National Center for Advancing Translational Sciences (NCATS), 2010)
